Assay results published in patent US20220033516A1.
These are yes or no findings as the source states them, for the method shown.

Molecular target: recombinant human wild-type HER2 ECD with twin Strep tag (human) (UniProt P04626)
Experiment: SPR, Biacore 8K, 37 C, antibody captured by anti-human Fc, antigen 25-400 nM

binding: no binding (tested: 400 nM)
B1: MHR0060/CD3 (bispecific antibody, human IgG1, kappa, N297A)
heavy 1: QSVEESGGRLVTPGTPLTLTCTVSGFSLSSYAMGWVRQAPGKGLEYIGIISSSGSTYYANWAKGRFTISKTSTTVDLKITSPTTEDTATYFCARGVDIYGHPYATPYGMDLWGPGTLVTVSSASTKGPSVFPLAPSSRSTSESTAALGCLVKDYFPEPVTVSWNSGALTSGVHTFPAVLQSSGLYSLSSVVTVPSSSLGTKTYTCNVDHKPSNTKVDKRVEPKSCDKTHTCPPCPAPELRRGPKVFLFPPKPKDTLMISRTPEVTCVVVDVSQEDPEVQFNWYVDGVEVHNAKTKPREEQFASTYRVVSVLTVLHQDWLNGKEYKCKVSNKGLPSSIEKTISKAKGQPREPQVYTLPPSREEMTKNQVSLTCLVKGFYPSDIAVEWESNGQPENNYKTTPPYLDSDGSFFLYSKLTVDKSRWQEGNVFSCSVMHEALHNHYTQESLSLSP
light 1: EVVMTQTPASVEVAVGGTVTIKCQASQSISSYLAWYQQKPGQPPKLLIYYASTLASGVPSRFKGSGSGTEFTLTISDLECDDAATYYCQSNYGSSSSSYEDTFGGGTKVEIKRTVAAPSVFIFPPSDEQLKSGTASVVCLLNNFYPREAKVQWKVDNALQSGNSQESVTEQDSKDCTYSLSSTLTLSKADYEKHKVYACEVTHQGLSSPVTKSFNRGEC
heavy 2: QVQLVESGGGVVQPGGSLRLSCAASGFTFSNAWMHWVRQAPGKGLEWVAQIKDKSQNYATYVAESVKGRFTISRADSKNSIYLQMNSLKTEDTAVYYCRYVHYAAGYGVDIWGQGTTVTVSSASTKGPSVFPLAPSSRSTSESTAALGCLVKDYFPEPVTVSWNSGALTSGVHTFPAVLQSSGLYSLSSVVTVPSSSLGTKTYTCNVDHKPSNTKVDKRVEPKSCDKTHTCPPCPAPELRRGPKVFLFPPKPKDTLMISRTPEVTCVVVDVSQEDPEVQFNWYVDGVEVHNAKTKPREEQFASTYRVVSVLTVLHQDWLNGKEYKCKVSNKGLPSSIEKTISKAKGQPREPQVYTLPPSRKEMTKNQVSLTCLVKGFYPSDIAVEWESNGQPENNYKTTPPYLDSDGSFFLYSKLTVDKSRWQEGNVFSCSVMHEALHNHYTQKSLSLSP
light 2: DIVMTQSPLSLPVTPGEPASISCRSSQPLVHSNRNTYLHWYQQKPGQAPRLLIYKVSNRFSGVPDRFSGSGSGTDFTLKISRVEAEDVGVYYCGQGTQVPYTFGQGTKLEIKRTVAAPSVFIFPPSDEQLKSGTASVVCLLNNFYPREAKVQWKVDNALQSGNSQESVTEQDSKDSTYSLSSTLTLSKADYEKHKVYACEVTHQGLSSPVTKSFNRGEC
